# Source: patent EP4203925B1, “CANNABINOID COMBINATIONS AND THEIR USE IN THE TREATMENT OF CANCER” (priority 2020, dated 2022)
# What was measured:
# MDA-MB-231 cells = experiment: MTT cell viability assay with Chou-Talalay median-effect / combination index analysis
# MCF-7 cells = experiment: as above
# [1] = individual cannabinoids, 48 hours, MTT
structure (smiles),measurement,setting,value
"CCCCCc1cc(O)c2c(c1)OC(C)(C)c1ccc(C)cc1-2 [CBN, cannabinol]",m (slope of the median-effect plot),MDA-MB-231 cells; [1],8.34
same,m (slope of the median-effect plot),MCF-7 cells; [1],8.63
"CCCCCc1cc(O)c2c(c1)OC(C)(C)[C@@H]1CCC(C)=C[C@@H]21 [THC, Δ^9-tetrahydrocannabinol]",m (slope of the median-effect plot),MDA-MB-231 cells,4.46
same,m (slope of the median-effect plot),MCF-7 cells,3.77
"C=C(C)[C@@H]1CCC(C)=C[C@H]1c1c(O)cc(CCCCC)cc1O [CBD, cannabidiol]",m (slope of the median-effect plot),MDA-MB-231 cells; [1],1.88
same,m (slope of the median-effect plot),MCF-7 cells; [1],2.86
"CCCCCc1cc(O)c(C/C=C(\C)CCC=C(C)C)c(O)c1 [CBG, cannabigerol]",m (slope of the median-effect plot),MDA-MB-231 cells; [1],9.08
same,m (slope of the median-effect plot),MCF-7 cells; [1],5.38

# Read-outs that look alike come from different tables or passages of the source.
